Numbered stars: 1 amine (or outer) side, 2 acyl side, 3 side chain; on linkers, the order of the positions; unused ones are H or OH. Square brackets hold non-standard residues; d marks the D form. * marks the point of attachment. DOTA = O=C(O)CN1CCN(CC(=O)O)CCN(CC(=O)*)CCN(CC(=O)O)CC1; X2 = O=C(Cn1cc([C@H](Cc2ccc(O)cc2)N[*:1])nn1)[*:2]; Nle = CCCC[C@H](N)C(=O)O
Assay: general procedure: Fmoc solid-phase peptide synthesis; rink amide MBHA LL resin; HATU, DIPEA
Settings: whole synthesis

With “{DOTA}-[dE]A[X2]W[Nle]DF-NH2 (SMILES CCCC[C@H](NC(=O)[C@H](Cc1c[nH]c2ccccc12)NC(=O)Cn1cc([C@H](Cc2ccc(O)cc2)NC(=O)[C@H](C)NC(=O)[C@@H](CCC(=O)O)NC(=O)CN2CCN(CC(=O)O)CCN(CC(=O)O)CCN(CC(=O)O)CC2)nn1)C(=O)N[C@@H](CC(=O)O)C(=O)N[C@@H](Cc1ccccc1)C(N)=O)” the “final purity (method not given)” value (scale 0.04101 mmol) was greater than 99% and the isolated yield (scale 0.04101 mmol) was 13.9%.
For DOTA[Nle15, Gly13-ψ[Tz]-Trp14]-MG11, the “final purity (method not given)” value (scale 0.0324 mmol) was 98.6% and the isolated yield (scale 0.0324 mmol) was 12.5%.
In the case of “DOTA[Nle^15, Tyr^12-ψ[Tz]-Gly^13-ψ[Tz]-Trp^14]MG11”, the “final purity (method not given)” value (scale 0.0506 mmol) is reported as 98.2% and the isolated yield (scale 0.0506 mmol) is reported as 10.8%.
With “DOTA[Nle^15, Ala^11-ψ[Tz]-Tyr^12, Trp^14-ψ[Tz]-Nle^15]MG11” the “final purity (method not given)” value (scale 0.0507 mmol) was greater than 99% and the isolated yield (scale 0.0507 mmol) was 25.0%.
For “DOTA[Nle^15, Tyr^12-ψ[Tz]-Gly^13-Trp^14-ψ[Tz]-Nle^15]-MG11”, the “final purity (method not given)” value (scale 0.0466 mmol) was 97.0% and the isolated yield (scale 0.0466 mmol) was 11.6%.
With DOTA[Nle15, Ala11-ψ[Tz]-Tyr12]-MG11 the “final purity (method not given)” value (scale 0.0394 mmol) was greater than 99% and the isolated yield (scale 0.0394 mmol) was 23.7%.
For [Trp-ψ[Tz]-Nle]-PPF11N, the “final purity (method not given)” value (scale 0.0334 mmol) was greater than 99% and the isolated yield (scale 0.0334 mmol) was 20.9%.
For [Tyr-ψ[Tz]-Gly]-PPF11N, the “final purity (method not given)” value (scale 0.0325 mmol) was 98.1% and the isolated yield (scale 0.0325 mmol) was 19.6%.
In the case of DOTA[Nle15, Nle15-ψ[Tz]-Asp16]-MG11, the “final purity (method not given)” value (scale 0.0399 mmol) is reported as greater than 99% and the isolated yield (scale 0.0399 mmol) is reported as 76.3%.
For DOTA[Nle15, Phe17-ψ[Tz]-H]-MG11, the “final purity (method not given)” value (scale 0.0511 mmol) was greater than 99% and the isolated yield (scale 0.0511 mmol) was 35.7%.
In the case of “DOTA[Nle^15, Ala^11-ψ[Tz]-Tyr^12-ψ[Tz]-Gly^13]MG11”, the “final purity (method not given)” value (scale 0.0495 mmol) is reported as 97.3% and the isolated yield (scale 0.0495 mmol) is reported as 5.9%.
With “DOTA[Nle^15, DGlu^10-ψ[Tz]-Ala^11-ψ[Tz]-Tyr^12]MG11” the “final purity (method not given)” value (scale 0.0506 mmol) was 97.8% and the isolated yield (scale 0.0506 mmol) was 10.6%.
For “DOTA[Nle^15, DGlu^10-ψ[Tz]-Ala^11-Tyr^12-ψ[Tz]-Gly^13]MG11”, the “final purity (method not given)” value (scale 0.0528 mmol) was 97.9% and the isolated yield (scale 0.0528 mmol) was 10.1%.
With DOTA[Nle15, Trp14-ψ[Tz]-Nle15]-MG11 the “final purity (method not given)” value (scale 0.041 mmol) was 97% and the isolated yield (scale 0.041 mmol) was 61.8%.
For DOTA[Nle15, DGlu10-ψ[Tz]-Ala11]-MG11, the “final purity (method not given)” value (scale 0.0403 mmol) was greater than 99% and the isolated yield (scale 0.0403 mmol) was 12.5%.
For DOTA[Nle15, Asp16-ψ[Tz]-Phe17]-MG11, the “final purity (method not given)” value (scale 0.0379 mmol) was 98.5% and the isolated yield (scale 0.0379 mmol) was 10.1%.
